Test results taken from article PMC6235520 (Science Advances, 2018).

Biological target: human KCNQ1 (Homo sapiens, UniProt P51787)
Test: Two-electrode voltage clamp of KCNQ1 expressed in Xenopus laevis oocytes
Type: cell-based

sensitivity of KCNQ1 to compound: insensitive
Compound: CC(C)CC(=O)O [isovaleric acid]
